Laboratory results taken from US11191779B2, “Pharmaceutical composition for preventing or treating cancer, comprising tetraarsenic hexoxide crystalline polymorph” (CHEMAS CO., LTD., priority 2016, dated 2021).
Some of these results come from one statement about several compounds together. For at least one compound, name, drawing or mass did not settle the structure.

Assays:
Assay type in all cases: cell-based
[1] = tested on: human prostate cancer cell line PC-3; assay: MTT cell proliferation assay, prostate cancer cell line PC-3; conditions: PC-3, incubated 48 hours and 72 hours (FIGS. 7A-B)
Excerpt: (§1) As human cancer cell lines, human lung cancer cell lines NCL-H226 and SK-MES-1, human esophageal cancer cell lines KYSE-150 and TE-1, human gastric cancer cell line AGS, human colorectal cancer cell lines HT29 and HCT116, human prostate cancer cell line PC-3, human pancreatic cancer cell lines BxPC-3 and PANC-1, human cervical cancer cell lines SiHa and HeLa, human ovarian cancer cell line SK-OV-3, and human endometrial cancer cell lines Ishikawa, HEC-1A, and HEC-1B were obtained from the Shanghai Cell Bank of Chinese Academy of Sciences. […]
(§2) The effects of Example 1 and Comparative Examples 1 to 3 on cell proliferation were assessed using MTT assay. […] All the crystals were completely dissolved by standing at room temperature for 15 minutes, and the absorbance was measured using a micro-plate reader at a wavelength of 570 nm (A570 nm).
(§3) The absorbance value of the control group treated without the sample was calculated as 100, and the absorbance value of the treatment group treated with the sample, compared with that of the control group, was calibrated, and the percentage of inhibition of cell proliferation was calculated according to the following equation. Percentage (%) of inhibition of cell proliferation=((mean absorbance of control group cells−mean absorbance of treatment group cells)/mean absorbance of control group cells)×100

[2] = tested on: human colorectal cancer cell line HT29; assay: MTT cell proliferation assay, colorectal cancer cell line HT29; conditions: HT29, incubated 72 hours (FIG. 6B)
Excerpt: as §1, §2, §3

[3] = tested on: human endometrial cancer cell line HEC-1B; assay: MTT cell proliferation assay, endometrial cancer cell line HEC-1B; conditions: incubated 72 hours (FIG. 9C)
Excerpt: as §1, §2, §3

[4] = tested on: human cervical cancer cell line HeLa; assay: MTT cell proliferation assay, cervical cancer cell line HeLa; conditions: incubated 72 hours (FIG. 9B)
Excerpt: as §1, §2, §3

[5] = tested on: human ovarian cancer cell line SK-OV-3; assay: MTT cell proliferation assay, ovarian cancer cell line SK-OV-3; conditions: SK-OV-3, incubated 72 hours (FIG. 9A)
Excerpt: as §1, §2, §3

[6] = tested on: human gastric cancer cell line AGS; assay: MTT cell proliferation assay, gastric cancer cell line AGS; conditions: incubated 72 hours (FIG. 5B)
Excerpt: as §1, §2, §3

[7] = tested on: human esophageal cancer cell line TE-1; assay: MTT cell proliferation assay, esophageal cancer cell line TE-1; conditions: TE-1, incubated 72 hours (FIG. 4B)
Excerpt: as §1, §2, §3

[8] = tested on: human pancreatic cancer cell line BxPC-3; assay: MTT cell proliferation assay, pancreatic cancer cell line BxPC-3; conditions: BxPC-3, incubated 72 hours (FIG. 8A)
Excerpt: as §1, §2, §3

[9] = tested on: human lung cancer cell line NCL-H226; assay: MTT cell proliferation assay, lung cancer cell line NCL-H226; conditions: NCL-H226, incubated 48 hours and 72 hours (FIGS. 2A-B)
Excerpt: as §1, §2, §3

**Q.** How did the “percentage of inhibition of cell proliferation, Example 1 versus Comparative Examples 1 to 3” value (“percentage of inhibition … to 3” below) [1] turn out when `O1[As]2O[As]3O[As]1O[As](O2)O3` [Example 1, tetraarsenic hexoxide] was run?
**A.** higher in the treatment with Example 1 than the treatment with Comparative Examples 1 to 3

**Q.** What about the “percentage of inhibition … to 3” value [2] of the same molecule?
**A.** higher in the treatment with Example 1 than the treatment with Comparative Examples 1 to 3

**Q.** And the “percentage of inhibition … to 3” value [3]?
**A.** higher in the treatment with Example 1 than the treatment with Comparative Examples 1 to 3

**Q.** And the “percentage of inhibition … to 3” value [4]?
**A.** higher in the treatment with Example 1 than the treatment with Comparative Examples 1 to 3

**Q.** And the “percentage of inhibition … to 3” value [5]?
**A.** higher in the treatment with Example 1 than the treatment with Comparative Examples 1 to 3

**Q.** What about the “percentage of inhibition … to 3” value [6] of the same molecule?
**A.** higher in the treatment with Example 1 than the treatment with Comparative Examples 1 to 3

**Q.** And the “percentage of inhibition … to 3” value [7]?
**A.** higher in the treatment with Example 1 than the treatment with Comparative Examples 1 to 3

**Q.** And the “percentage of inhibition … to 3” value [8]?
**A.** higher in the treatment with Example 1 than the treatment with Comparative Examples 1 to 3

**Q.** What about the “percentage of inhibition … to 3” value [9] of the same molecule?
**A.** higher in the treatment with Example 1 than the treatment with Comparative Examples 1 to 3
